Patent US8034769

Sequences of proteins named here, by UniProt entry; tags and fusion partners are left off. A change or cut given only in a name is not applied to a line headed by its entry. Residues count along the entry.
UniProt P16671: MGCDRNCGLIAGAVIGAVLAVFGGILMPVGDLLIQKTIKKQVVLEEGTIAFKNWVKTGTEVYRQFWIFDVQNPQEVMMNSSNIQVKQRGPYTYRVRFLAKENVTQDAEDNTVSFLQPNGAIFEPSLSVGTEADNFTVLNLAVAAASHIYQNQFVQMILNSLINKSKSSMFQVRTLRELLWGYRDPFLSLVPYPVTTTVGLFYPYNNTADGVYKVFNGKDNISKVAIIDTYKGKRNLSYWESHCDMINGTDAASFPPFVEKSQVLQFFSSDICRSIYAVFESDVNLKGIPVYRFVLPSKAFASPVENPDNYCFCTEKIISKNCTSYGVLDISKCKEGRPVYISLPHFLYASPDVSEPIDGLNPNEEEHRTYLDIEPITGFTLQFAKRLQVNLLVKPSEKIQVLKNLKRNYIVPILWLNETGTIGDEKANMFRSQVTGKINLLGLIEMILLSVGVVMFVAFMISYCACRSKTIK
UniProt P07996, residues 19-1170: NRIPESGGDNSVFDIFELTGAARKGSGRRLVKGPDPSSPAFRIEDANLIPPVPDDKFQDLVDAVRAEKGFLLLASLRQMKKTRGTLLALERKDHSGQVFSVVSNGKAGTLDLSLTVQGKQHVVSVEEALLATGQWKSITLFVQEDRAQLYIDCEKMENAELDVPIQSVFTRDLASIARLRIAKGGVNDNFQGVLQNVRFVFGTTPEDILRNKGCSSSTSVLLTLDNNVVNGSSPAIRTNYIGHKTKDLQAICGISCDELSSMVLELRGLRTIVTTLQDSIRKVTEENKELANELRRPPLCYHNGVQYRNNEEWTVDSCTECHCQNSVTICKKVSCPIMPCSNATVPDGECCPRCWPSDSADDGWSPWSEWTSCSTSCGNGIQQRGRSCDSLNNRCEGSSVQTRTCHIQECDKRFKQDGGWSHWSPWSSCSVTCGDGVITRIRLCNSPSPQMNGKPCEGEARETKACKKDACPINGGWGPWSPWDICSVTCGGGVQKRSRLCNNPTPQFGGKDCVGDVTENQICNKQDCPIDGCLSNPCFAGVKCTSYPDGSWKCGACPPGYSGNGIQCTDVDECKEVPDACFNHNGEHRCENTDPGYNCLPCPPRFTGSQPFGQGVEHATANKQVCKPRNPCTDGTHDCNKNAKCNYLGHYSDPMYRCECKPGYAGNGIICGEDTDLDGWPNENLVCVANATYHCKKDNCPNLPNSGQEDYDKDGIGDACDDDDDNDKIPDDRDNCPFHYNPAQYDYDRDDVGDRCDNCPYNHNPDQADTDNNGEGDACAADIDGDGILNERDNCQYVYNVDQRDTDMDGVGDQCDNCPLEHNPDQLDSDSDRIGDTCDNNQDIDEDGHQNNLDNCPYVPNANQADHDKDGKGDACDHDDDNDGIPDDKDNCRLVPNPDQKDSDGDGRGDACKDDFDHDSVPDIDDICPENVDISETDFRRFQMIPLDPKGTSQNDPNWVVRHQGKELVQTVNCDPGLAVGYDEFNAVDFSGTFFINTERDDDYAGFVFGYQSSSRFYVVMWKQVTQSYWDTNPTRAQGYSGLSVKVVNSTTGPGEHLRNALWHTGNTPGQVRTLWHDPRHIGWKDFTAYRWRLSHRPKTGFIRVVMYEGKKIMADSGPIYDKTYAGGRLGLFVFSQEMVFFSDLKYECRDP

Tests used:
CD36 (human) [1] = target: CD36 (human) (UniProt P16671); experiment: summary in the legend of FIG. 16a
CD36 (human) [2] = target: CD36 (human) (UniProt P16671); experiment: flow cytometry on cells, in the presence of oxidized proteins (FIGS. 15a-d)
CD36 (human) [3] = target: CD36 (human) (UniProt P16671); experiment: flow cytometry on monocytes with anti-TSP-1 clone P10; TSP-1 and oxidized ATIII added (FIG. 15c)
CD36 (human) [4] = target: CD36 (human) (UniProt P16671); experiment: flow cytometry, FITC-conjugated TSP-1 (50 µg/ml) on human thrombocytes with oxidized fibrinogen (FIG. 15a)
CD36 (human) [5] = target: CD36 (human) (UniProt P16671); experiment: flow cytometry on HMEC-1 cells with oxidized antithrombin III, detection with anti-TSP-1 clone P10-PE (FIG. 15b)
CD36 (human) [6] = target: CD36 (human) (UniProt P16671); experiment: flow cytometry on Jurkat cells with oxidized antithrombin III, with or without TSP-1 25 µg/ml, detection with anti-TSP clone P10-PE (FIG. 15d)

binding (CD36 (human) [1]): binds
binding (CD36 (human) [2]): binds
binding (CD36 (human) [3]): binds
binding (CD36 (human) [4]): binds
binding (CD36 (human) [5]): binds
binding (CD36 (human) [6]): binds
Substance: human thrombospondin-1 (from UniProt P07996 19-1170) (ligand)

No constants are given. Whether binding was seen depends on the method and setting. A result given as binding can be weak or reduced; the word gives no strength.
